We go through one substance from US20030170807A1 (Johns Hopkins, published 2003).

Results are given in words; binding and its absence hold for the method and conditions named. In cells and extracts the contact can be indirect. A result given as binding can be weak or reduced; the word gives no strength. Where a sequence is shown, tags or fusion partners need not be part of it.

This assay has as its target T1, myc-tagged carboxy-terminal 347 amino acids of GKAP-3 expressed in HEK293 cells (rat) (UniProt P97838).
T1 sequence (looked up): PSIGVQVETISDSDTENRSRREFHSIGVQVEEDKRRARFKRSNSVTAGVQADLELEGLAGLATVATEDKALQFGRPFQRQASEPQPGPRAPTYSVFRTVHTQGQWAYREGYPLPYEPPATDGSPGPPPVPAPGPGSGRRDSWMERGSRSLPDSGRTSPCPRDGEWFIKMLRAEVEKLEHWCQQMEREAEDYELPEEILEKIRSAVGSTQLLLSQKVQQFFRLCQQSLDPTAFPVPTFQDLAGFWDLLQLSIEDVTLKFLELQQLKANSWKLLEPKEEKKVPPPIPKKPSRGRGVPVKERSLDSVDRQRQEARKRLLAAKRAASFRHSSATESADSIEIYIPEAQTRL
Nature of the assay: GST pull-down from HEK293 lysate.

Take “GST fusion of Shank3 PDZ domain (residues 559-673)”: the binding result was “binds”.
